No constants are given. Whether binding was seen depends on the method and setting. Binding can be weak; no strength is given.
B1: M0030-A04 Fab (Fab, V domains shown)
VH: EVQLLESGGGLVQPGGSLRLSCAASGFTFSVYEMNWVRQAPGKGLEWVSSIYSSGGRTDYADSVKGRFTISRDNSKNTLYLQMNSLRAEDTAVYYCAREAHYYDSSGPPDYWGQGTLVTVSS
VL: QSELTQPPSASGTPGQRVTISCSGSSSNIGINFVTWYQQLPGTAPKLLIYTNNQRPSGVPDRFSSSKSGASASLAISGLQSEDEAAYYCAAWDDNLNGPVFGGGTKLTVL
B2: M0035-F02 Fab (Fab, V domains shown)
VH: EVQLLESGGGLVQPGGSLRLSCAASGFTFSFYRMEWVRQAPGKGLEWVSSIVPSGGFTRYADSVKGRFTISRDNSKNTLYLQMNSLRAEDTAVYYCARFHVLRYFDWFGNTQDTDAFDIWGQGTLVTVSS
VL: DIQMTQSPATLSLSPGERATLSCRASQSVSNYLAWYQQKPGQAPRLLIYDASNRATGIPARFSGSGSGTDFTLTISSLEPEDFAVYYCQQRSNWPLTFGGGTKVEIK
B3: M0036-F02 Fab (Fab, V domains shown)
VH: EVQLLESGGGLVQPGGSLRLSCAASGFTFSRYTMGWVRQAPGKGLEWVSRIYSSGGNTVYADSVKGRFTISRDNSKNTLYLQMNSLRAEDTATYYCARTRRDGYNPFDYWGQGTLVTVSS
VL: QYELTQPPSLSVSPGQTASITCSGEKLGEKFASWYQRRPGQSPLLIIYQDNKRPSGIPERFSGSNSGNTAALTITGTQAMDDADYYCQAWESTTAVFGGGTKLTVL
B4: M0037-B10 Fab (Fab, V domains shown)
VH: EVQLLESGGGLVQPGGSLRLSCAASGFTFSVYYMGWVRQAPGKGLEWVSYIGSSGGWTEYADSVKGRFTISRDNSKNTLYLQMNSLRAEDTAVYYCARDLSAVAGLGGAFDIWGQGTMVTVSS
VL: DIQMTQSPSSLSASVGDRVAITCRASQSIDTYLNWYQQKPGKAPKLLIYAASKLEDGVPSRFSGSGTGTDFTLTIRSLQPEDFASYFCQQSYSSPGITFGPGTKVEIK
B5: M0037-C03 Fab (Fab, V domains shown)
VH: EVQLLESGGGLVQPGGSLRLSCAASGFTFSMYLMIWVRQAPGKGLEWVSVISSSGGQTKYADSVKGRFTISRDNSKNTLYLQMNSLRAEDTAVYYCARTDLTGYSAGAFDIWGQGTMVTVSS
VL: DIQMTQSPSSVSASVGDRVTITCRASQGISSWLAWYQQKPGKAPKLLIYAASSLQSGVPSRFSGSGSGTDFTLTISSLQPEDFATYYCQQANSFPFVTFGQGTKLEIK
B6: M0037-H09 Fab (Fab, V domains shown)
VH: EVQLLESGGGLVQPGGSLRLSCAASGFTFSRYWMDWVRQAPGKGLEWVSSIRSSGGMTGYADSVKGRFTISRDNSKNTLYLQMNSLRAEDTAVYYCARHRTGRGAFDIWGQGTTVTVSS
VL: DIQMTQSPLSLPVTPGEPASISCRSSQSLLHGNGNNYLDWYLQKPGQSPQLLIYLGSNRASGVPDRFSGSGSGTDFTLKISSVEAEDVGVYYCMQGLQTPHTFGQGTQLEIK
B7: M0038-B06 Fab (Fab, V domains shown)
VH: EVQLLESGGGLVQPGGSLRLSCAASGFTFSSYVMGWVRQAPGKGLEWVSVISPSGGWTTYADSVKGRFTISRDNSKNTLYLQMNSLRAEDTATYYCASRGVVTNLDYWGQGTLVTVSS
VL: DIQMTQSPSSLSASVGDRVTITCRASQSISSYLNWYQQKPGKAPKLLIYAASSLQSGVPSRFRGSGSGTDFSLTISSLQPEDFATYYCQQTYSGLPTFGGGTVVEIK
B8: M0038-C05 Fab (Fab, V domains shown)
VH: EVQLLESGGGLVQPGGSLRLSCAASGFTFSSYIMVWVRQAPGKGLEWVSVIYPSGGPTYYADSVKGRFTISRDNSKNTLYLQMNSLRAEDTAVYYCARDPRLERFYFDYWGQGTLVTVSS
VL: DIQMTQSPSSLSASVGDRVTITCRASQSISSYLNWYQQKPGKAPKLLIYAASSLQSGVPSRFSGSGSGTDFTLTISRLEPEDFAVYYCQQYGSSPTFGQGTKVEIK

Molecular target: human MMP-14 (human)
Assay: phage display selection and phage ELISA screening on biotinylated MMP-14

binding, binds:
B1
B2
B3
B4
B5
B6
B7
B8
